Reference: paper PMC1189073
Positions count from the first letter of the chain named. No constants are given. Whether binding was seen depends on the method and setting. In cells and extracts the contact can be indirect. Some entries that bind do so weakly or less than the wild type. Sequences can lack the tags named with a protein.

Legend:
[1] = target: T1, GFP tagged AQP2-F204V (mouse) (UniProt P56402); assay: co-IP; MDCK cells stably expressing wild-type AQP2, transiently transfected with GFP constructs; membranes dissolved in 4% sodium deoxycholate (37 °C, 1 h), diluted, incubated overnight with GFP antisera and protein A/G sepharose; washed in RIPA buffer; blotted with an antibody against AQP2
T1 sequence: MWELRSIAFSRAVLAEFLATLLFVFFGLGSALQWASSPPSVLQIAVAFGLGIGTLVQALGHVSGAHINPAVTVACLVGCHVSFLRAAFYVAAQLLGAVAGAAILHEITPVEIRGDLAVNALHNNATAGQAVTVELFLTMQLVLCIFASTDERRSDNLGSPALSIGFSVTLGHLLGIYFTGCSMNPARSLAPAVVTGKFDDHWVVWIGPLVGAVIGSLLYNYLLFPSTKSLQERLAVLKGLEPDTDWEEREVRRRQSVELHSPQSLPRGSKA

[2] = target: T2, GFP tagged wild-type AQP2 (mouse) (UniProt P56402); assay: as above
T2 sequence: T1 sequence with V204F

- binding [1]: binds
- binding [2]: binds
B1: wild-type AQP2 (mouse aquaporin-2) (protein, UniProt P56402 1-271)
chain: T1 sequence with V204F
